The values that follow come from patent US20120207673A1.

In this assay the target is hen egg lysozyme (hen) (UniProt P00698). The experiment in a line: SPR (Biacore 2000), purified VH. On the technique in general: In SPR one partner is held on a chip, and binding of the other changes the refractive index at the surface.

No constants are given. Whether binding was seen depends on the method and setting. Some results given as binding are weak or reduced against the parent protein; the word gives no strength.

B1: VHHEL_G08 (anti-HEL VH), purified soluble domain (protein)
VH: EVQLLESGGGLVQPGGSLRLSCAASGFRISDEDMGWVRQAPGKGLEWVSYIDNNGYSTYYADSVKGRFTISRDNSKNTLYLQMNSLRAEDTAVYYCAKKQYGYQNGGFDYWGQGTLVTVSS
Turning to B1, the binding result is recorded as “binds”.
